Reference: PubChem BioAssay AID1259424 (University of Nebraska Medical Center, 2018)
Test: 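Rank knockdowns across the genome by resemblance to the KSR1 depletion profile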 (primary screen). System: human HCT116 colon cancer cells. Reagents: siRNA pool against human genes, 50 nM. Measurement: 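Six signature mRNAs by branched-DNA multiplex assay, scaled to two housekeeping genes and non-targeting median, log2; matched to mean KSR1 knockdown profile by Pearson correlation and euclidean distance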. Reading the numbers: mean correlation with KSR1 profile: higher = expression change more like KSR1 knockdown.
Shown is an unselected part of about 14,000 deposited reagents. 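Higher correlation or smaller distance means closer resemblance to KSR1 loss; control wells, including KSR1 knockdowns, recur on many plates.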 Further read-outs or replicates are left out here. Reagent sequences are not shown. Not stated in the record: the time to read-out.

MNX1 (motor neuron and pancreas homeobox 1)
- mean correlation with KSR1 profile: 0.378

ADH1C (alcohol dehydrogenase 1C (class I), gamma polypeptide)
- mean correlation with KSR1 profile: 0.097

PHC3 (polyhomeotic homolog 3)
- mean correlation with KSR1 profile: 0.477

PSTPIP2 (proline-serine-threonine phosphatase interacting protein 2)
- mean correlation with KSR1 profile: -0.137

SRGN (serglycin)
- mean correlation with KSR1 profile: 0.416

BABAM2 (BRISC and BRCA1 A complex member 2)
- mean correlation with KSR1 profile: 0.402

OR1E2 (olfactory receptor family 1 subfamily E member 2)
- mean correlation with KSR1 profile: 0.938

PCDHB3 (protocadherin beta 3)
- mean correlation with KSR1 profile: 0.522

CRIM1 (cysteine rich transmembrane BMP regulator 1)
- mean correlation with KSR1 profile: -0.317

PRRX2 (paired related homeobox 2)
- mean correlation with KSR1 profile: 0.175

CDC5L (cell division cycle 5 like)
- mean correlation with KSR1 profile: -0.112

EDRF1 (erythroid differentiation regulatory factor 1)
- mean correlation with KSR1 profile: -0.109
